The target of this experiment is bone morphogenetic protein-2 (BMP-2) (human (endogenous in PDLSCs)) (UniProt P12643). The experiment in a line: co-IP; endogenous co-IP from PDLSC lysate (cell lysis buffer for Western and IP); protein A + G agarose with anti-CTGF antibody, anti-BMP2 antibody or rabbit control IgG, overnight at 4°C; washed 3 times with lysis buffer; Western blot. In general terms: In western blotting, separated proteins are transferred to a membrane and probed.

By UniProt entry, the sequences of proteins in these tests, tags left out. Where a name states a change or a piece, a line headed by the entry shows the natural chain unless it says otherwise. Residues count along the entry.
UniProt P12643: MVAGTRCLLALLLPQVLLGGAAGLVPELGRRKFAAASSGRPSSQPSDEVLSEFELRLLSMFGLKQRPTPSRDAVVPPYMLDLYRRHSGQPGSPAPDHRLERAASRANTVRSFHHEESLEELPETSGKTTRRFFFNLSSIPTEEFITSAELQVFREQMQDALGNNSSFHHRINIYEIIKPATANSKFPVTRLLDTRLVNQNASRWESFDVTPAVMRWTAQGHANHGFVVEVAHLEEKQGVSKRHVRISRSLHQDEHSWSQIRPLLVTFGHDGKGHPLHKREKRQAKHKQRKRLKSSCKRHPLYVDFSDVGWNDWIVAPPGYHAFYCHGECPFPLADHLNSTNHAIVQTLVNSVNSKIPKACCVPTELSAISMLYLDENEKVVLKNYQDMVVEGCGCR
UniProt P29279, residues 27-349: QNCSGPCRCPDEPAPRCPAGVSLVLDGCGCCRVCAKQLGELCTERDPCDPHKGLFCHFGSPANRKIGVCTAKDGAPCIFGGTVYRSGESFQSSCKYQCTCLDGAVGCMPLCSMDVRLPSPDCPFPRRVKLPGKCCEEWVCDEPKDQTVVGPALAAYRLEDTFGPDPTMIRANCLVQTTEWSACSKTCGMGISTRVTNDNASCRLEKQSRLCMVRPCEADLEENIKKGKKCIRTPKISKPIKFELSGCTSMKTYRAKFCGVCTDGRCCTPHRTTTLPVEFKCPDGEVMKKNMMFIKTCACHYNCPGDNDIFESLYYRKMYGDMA

Results are given in words; binding and its absence hold for the method and conditions named. In cells and extracts the contact can be indirect. Binding can be weak; no strength is given.

This note sets out measurements from article PMC9499771.

As to “connective tissue growth factor 2 (CTGF) (from UniProt P29279 27-349)”, the binding entry is on record as “binds”.
